The other results are listed elsewhere or left out. The source does not settle which construct or isoform was used.

For the test, the target named is T1, ELF2 (UniProt Q15723).
T1 sequence: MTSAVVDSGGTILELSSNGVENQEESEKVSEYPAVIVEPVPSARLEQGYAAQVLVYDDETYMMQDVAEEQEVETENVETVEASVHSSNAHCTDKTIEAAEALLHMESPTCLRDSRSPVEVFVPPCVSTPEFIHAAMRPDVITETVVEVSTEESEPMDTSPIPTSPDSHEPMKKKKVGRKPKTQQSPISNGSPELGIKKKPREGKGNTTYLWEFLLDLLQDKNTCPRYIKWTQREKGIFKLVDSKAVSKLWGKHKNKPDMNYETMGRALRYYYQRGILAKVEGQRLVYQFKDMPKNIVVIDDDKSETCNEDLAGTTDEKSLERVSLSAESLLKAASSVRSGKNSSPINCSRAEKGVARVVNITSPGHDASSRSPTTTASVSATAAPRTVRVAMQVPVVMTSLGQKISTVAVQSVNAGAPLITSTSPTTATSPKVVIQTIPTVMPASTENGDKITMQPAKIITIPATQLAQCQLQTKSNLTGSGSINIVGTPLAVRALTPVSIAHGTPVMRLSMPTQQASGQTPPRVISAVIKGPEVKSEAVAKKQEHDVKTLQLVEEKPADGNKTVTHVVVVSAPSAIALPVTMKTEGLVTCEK
Description: DAPPL (digital affinity profiling via proximity ligation, sequencing). The settings on record: 10 mM Tris-HCl pH 7.5, 50 mM NaCl, 1 mM DTT, 4% glycerol, room temperature, 30 min; GST-TFs on glutathione beads, 16-mer random dsDNA library, 0.1% …; high values mean tight binding; double strand, one strand shown; scale: fold enrichment (6-mer frequency, TF over GST control).
The sequence CCCCAG showed a binding signal of 0.976.

In turn, GATAAG showed a binding signal of 0.923.

For ATTCCA, the binding signal is 1.14.

Sequence TCAAAT showed a binding signal of 1.06.

CTGGCT displayed a binding signal of 1.2.

In turn, CCCGAT had a binding signal of 1.2.

Turning to CGAACC, the binding signal was determined as 1.17.

The sequence CTACGC showed a binding signal of 1.41.

CACGAC displayed a binding signal of 1.17.

The sequence CGTTTA displayed a binding signal of 1.07.

As to AAAATA, the binding signal was found to be 1.25.

GCTCCG showed a binding signal of 1.24.

The sequence AAGCAT came in with a binding signal of 1.09.

In turn, GTAATC registered a binding signal of 1.09.

As for ACTGCC, the binding signal stood at 1.44.

For the sequence CAACTC, the binding signal is 1.15.

ACTTAG came in with a binding signal of 1.09.

ATAGTT gave a binding signal of 1.25.

For CTTTAC, the binding signal is 1.32.

As for ACGATT, the binding signal was determined as 1.32.

On to AACCCG, for which the binding signal is 1.85.

On to TAGCGT, for which the binding signal was 0.969.

The sequence CGTAAA had a binding signal of 1.09.

As to CTCCCC, the binding signal stood at 1.32.

Regarding CCGCAA, the binding signal was determined as 1.46.

For CCCAAA, the binding signal came out at 1.12.

As to GCGAAG, the binding signal came to 0.856.

Sequence GAGAAA had a binding signal of 0.675.

CTAACA yielded a binding signal of 1.16.

On to CAGATT, for which the binding signal was determined as 0.996.

The sequence GATCGA registered a binding signal of 0.778.

Sequence AGCCTA showed a binding signal of 1.03.

The sequence ATTAAG registered a binding signal of 1.08.

GCTAGA: the binding signal was 0.944.

In turn, TTGCTG displayed a binding signal of 1.17.

The sequence ATAAAA yielded a binding signal of 1.15.

For the sequence AAGCTT, the binding signal is 1.36.

As to GATGGA, the binding signal stood at 0.856.

Sequence CCTATA gave a binding signal of 1.37.

Take TAGTAT: the binding signal was determined as 1.24.

For the origin of these results see publication PMC7862700.
